This note sets out measurements from PMC8024676.

These are yes or no findings as the source states them, for the method shown. Binding seen in cells or lysates may run through a third protein. These calls come from enrichment with a bait or labelling near it, and not all partners need be listed.

The assay addresses Mauve-mCherry (Drosophila melanogaster). The assay is described as follows: affinity purification with mass spectrometry; Mv-mCherry isolated on RFP-Trap-MA beads from protein extracts of 1 g of 0-3 h embryos; Or-R embryos as control; two independent pull-downs.

B1: Rab5 (protein, UniProt Q9V3I2 1-219)
chain: MATTPRSGGASGTGTAQRPNGTSQNKSCQFKLVLLGESAVGKSSLVLRFVKGQFHEYQESTIGAAFLTQTICIEDTVVKFEIWDTAGQERYHSLAPMYYRGAQAAIVVYDIQNQDSFQRAKTWVKELHKQASPNIVIALAGNKADLSNIRVVEFDEAKQYAEENGLLFMETSAKTGMNVNDIFLAIAKKLPKNDGANNQGTSIRPTGTETNRPTNNCCK
Consider B1, for which the binding entry was “binds”.
